Measurements reported in PubChem BioAssay AID720505 (Drosophila RNAi Screening Center, 2013)
Screen: 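Knock-downs that reduce calcium influx once internal stores are emptied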 (primary screen). Cell system: Drosophila S2R+ cells. Reagents: long dsRNA against Drosophila genes. Challenge: thapsigargin (2 µM) in calcium-free buffer to empty internal stores, then 2 mM calcium added back. Read-out: 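Stores emptied by 2 µM thapsigargin without calcium, then 2 mM calcium re-added; fluo-4 fluorescence followed by FLIPR in 384-well plates, per-well averaged endpoint, raw; two screen passes, some wells retested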. Reading the numbers: calcium signal: higher = more calcium entry after store depletion. Active means: 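Knock-downs counted as hits when calcium entry dropped relative to STIM1 positive and Rho1 negative controls present on each plate; roughly 1500 genes called, with reductions of differing size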. Calls: active = called as lowering calcium entry; inactive = not called.
The screen tested about 20,000 reagents; this is a random part of those that have a named target and a result. In the full data, about 2,100 (10%) are marked active. 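Raw plate signals without normalisation; calls rest on control-based scores that were not deposited; replicate 2 separates called from uncalled poorly.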 A number with no mark means an inactive call. Reagents against one gene are numbered here. The record does not give: the amount of reagent, the time to read-out.

{"gene knocked down": "eIF1A (GeneID 44260)", "dsRNA no.": 1, "calcium signal, replicate 1": 133, "calcium signal, replicate 2": 123}
{"gene knocked down": "CG1722 (GeneID 33101)", "dsRNA no.": 1, "calcium signal, replicate 1": 228, "calcium signal, replicate 2": 85.8}
{"gene knocked down": "CG1545 (GeneID 32036)", "dsRNA no.": 1, "calcium signal, replicate 1": 122, "calcium signal, replicate 2": 90.5}
{"gene knocked down": "Wnt2 (GeneID 35975)", "dsRNA no.": 1, "calcium signal, replicate 1": 105, "calcium signal, replicate 2": 98.6}
{"gene knocked down": "Wnt2 (GeneID 35975)", "dsRNA no.": 2, "calcium signal, replicate 1": 137, "calcium signal, replicate 2": 176}
{"gene knocked down": "CG9147 (GeneID 33855)", "dsRNA no.": 1, "calcium signal, replicate 1": 153, "calcium signal, replicate 2": 118}
{"gene knocked down": "CG5726 (GeneID 37082)", "dsRNA no.": 1, "calcium signal, replicate 1": 132, "calcium signal, replicate 2": 99}
{"gene knocked down": "CG8141 (GeneID 41622)", "dsRNA no.": 1, "calcium signal, replicate 1": 107, "calcium signal, replicate 2": 152}
{"gene knocked down": "CG13510 (GeneID 37596)", "dsRNA no.": 1, "calcium signal, replicate 1": 96, "calcium signal, replicate 2": 153}
{"gene knocked down": "CG14969 (GeneID 38415)", "dsRNA no.": 1, "calcium signal, replicate 1": 91.7, "calcium signal, replicate 2": 93}
{"gene knocked down": "CG30356 (GeneID 246562)", "dsRNA no.": 1, "calcium signal, replicate 1": "60.5 (active)", "calcium signal, replicate 2": 73.4}

Laid out differently: 2 of the entries above.
{"gene knocked down":"Wnt2 (GeneID 35975)","dsRNA no.":2,"calcium signal, replicate 1":137,"calcium signal, replicate 2":176}
{"gene knocked down":"CG9147 (GeneID 33855)","dsRNA no.":1,"calcium signal, replicate 1":153,"calcium signal, replicate 2":118}

Additional results follow:
{"gene knocked down": "CG5793 (GeneID 42505)", "dsRNA no.": 1, "calcium signal, replicate 1": 108, "calcium signal, replicate 2": 148}
{"gene knocked down": "CG32192 (GeneID 317904)", "dsRNA no.": 1, "calcium signal, replicate 1": 139, "calcium signal, replicate 2": 97}
{"gene knocked down": "Csl4 (GeneID 34548)", "dsRNA no.": 1, "calcium signal, replicate 1": 169, "calcium signal, replicate 2": 150}
{"gene knocked down": "Csl4 (GeneID 34548)", "dsRNA no.": 2, "calcium signal, replicate 1": 72.1, "calcium signal, replicate 2": 121}
{"gene knocked down": "Mipp2 (GeneID 31544)", "dsRNA no.": 1, "calcium signal, replicate 1": 107, "calcium signal, replicate 2": 105}
{"gene knocked down": "Usp15-31 (GeneID 37954)", "dsRNA no.": 1, "calcium signal, replicate 1": "57 (active)", "calcium signal, replicate 2": 140}
{"gene knocked down": "Usp15-31 (GeneID 37954)", "dsRNA no.": 2, "calcium signal, replicate 1": 125, "calcium signal, replicate 2": 231}
{"gene knocked down": "CG13526 (GeneID 37613)", "dsRNA no.": 1, "calcium signal, replicate 1": 95.7, "calcium signal, replicate 2": 151}
